Source: the supplement of paper PMC11150407
In all, about 3,000 compounds went through this assay and about 45 (2%) showed an effect of 50% or more. The list shows a part of the results.

These compounds were tested on MOLM1 and UCSD/AML1 (averaged) (assay: cell viability relative to DMSO control (POC); higher = less growth inhibition). Conditions: 1 µM; 72 h.
Method: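 Primary viability screen in the 3q26 EVI1-high AML cell lines MOLM1 and UCSD/AML1, compounds at 1 uM for 72 h. ATP CellTiter-Glo read-out given as percent viable over DMSO control (POC), averaged over duplicates. This mapping covers the TimTec NDL-3000 natural derivative library, whose compounds are identified by TimTec catalogue codes (ST...).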
For `COc1ccc(C2CC(=O)c3ccccc3O2)cc1` (stereo not drawn), the cell viability was 96.2%. `Cc1cc2oc(=O)c([N+](=O)[O-])c(O)c2cc1Cl` was tested, and the cell viability was 97.5%. For `COc1ccc(C2C3CCCCC3(O)CCN2C(=O)c2ccccc2)c(OC)c1` (stereo not drawn), the cell viability was 101%. For `COc1ccc(C(=O)Nc2cccc(C3OCCO3)c2)cc1OC`, the cell viability was 96.5%. Compound `O=C(O)C(=O)c1ccccc1C(=O)O` has a cell viability of 95%. With `CCOc1ccc2oc(=O)cc(CN3CCN(CC(=O)Nc4cc(F)ccc4F)CC3)c2c1` the cell viability was 98.5%. `O=C(Nc1ccc(Cl)cc1Cl)C1CC2CC3CCC1C2C3` (stereo not drawn) gave a cell viability of 97.6%. For `CCOC(=O)COc1ccc(C=C(C#N)C#N)cc1OC`, the cell viability was 93.9%. Work on `COc1ccccc1NC(=O)COC(=O)c1cc(=O)n(C)c(=O)n1C` yielded a cell viability of 94.5%. With `CC1=CC(=O)c2ccccc2C1=O` the cell viability was 87%. `Cc1ncnc2nc[nH]c12` gave a cell viability of 3.11%. Work on `CN1CCc2[nH]c3ccccc3c2C1` yielded a cell viability of 110%. `C#C[C@]1(OC(C)=O)CC[C@H]2[C@@H]3CCC4=CC(=O)CC[C@@H]4[C@H]3CC[C@@]21C` was tested, and the cell viability was 81.9%. Work on `Cc1ccc(-n2c(SCC(=O)Nc3ccc(C(C)C)cc3)nc3c(=O)[nH]cnc32)cc1` yielded a cell viability of 100%. Work on `COc1cc(C(=O)NNC(=O)CCCCCCCC(=O)NNC(=O)c2cc(OC)c(OC)c(OC)c2)cc(OC)c1OC` yielded a cell viability of 102%. `CCN(CC)CCNc1c(N)c(=O)oc2ccccc12` was tested, and the cell viability was 94.5%. In the case of `CCCc1[nH]nc2c1C(c1cc(OC)c(OC(C)=O)c(OC)c1)C(C#N)=C(N)O2` (stereo not drawn), the cell viability is reported as 101%. `COc1cc(OC)cc(C2C(C#N)=C(N)OC3=C2C(=O)CCC3)c1` (stereo not drawn) gave a cell viability of 87.3%. Compound `Cn1c(C(=O)NCCOc2ccccc2Cl)cc(=O)n(C)c1=O` has a cell viability of 110%. In the case of `CCCCOC1CC[C@@]2(C)C(=CC[C@H]3[C@@H]4CC[C@H]([C@H](C)CCCC(C)C)[C@@]4(C)CC[C@@H]32)C1` (stereo partly drawn), the cell viability is reported as 101%. With `COc1ccc2c(c1)c(CC(=O)Nc1ccccn1)c(C)n2C(=O)c1ccc(Cl)cc1` the cell viability was 101%. In the case of `O=C(/C=C/c1ccccc1)c1cc(O)ccc1O`, the cell viability is reported as 93.7%. With `Cc1ccc(OCCSc2ncnc3nc[nH]c23)cc1` the cell viability was 92.7%. `COc1ccc2[nH]c3c(c2c1)CCNC3c1ccc(OC)c(COc2ccc([N+](=O)[O-])c(C)c2)c1` (stereo not drawn) was tested, and the cell viability was 64.7%. For `Cc1ccccc1Cn1cc(NC(=S)N2CCc3ccccc3C2)cn1`, the cell viability was 99.5%. `CCn1c(=O)c(NC(=O)c2ccccc2)c(C(=O)Nc2ccccc2)c2ccccc21` was tested, and the cell viability was 93%. With `C=C(C)C1CCC2(COC(=O)/C=C/c3ccccc3)CCC3(C)C(CCC4C5(C)CCC(OC(=O)/C=C/c6ccccc6)C(C)(C)C5CCC43C)C12` (stereo not drawn) the cell viability was 104%. Work on `CSc1ccc(OCCN=Cc2c(O)c(O)c(C(C)C)c3cc(C)c(-c4c(C)cc5c(C(C)C)c(O)c(O)c(C=NCCOc6ccc(SC)cc6)c5c4O)c(O)c23)cc1` yielded a cell viability of 113%.
